PubChem BioAssay AID602196 – INSERM, 2012
The whole screen tested about 23,000 reagents; this is a part drawn at random. 455 of all reagents (2%) were called active. 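Active includes both protection and sensitisation; some change values fall well beyond the stated -50 to +50 range.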 Reagents against one gene are numbered here. Further read-outs or replicates are left out here. The record does not give: the amount of reagent.

- Aim: 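Modifiers of cisplatin sensitivity in A549 cells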
- Cell system: human A549 lung cancer cells
- Knock-down reagent: siRNA pair against human genes
- Timing: 48 h transfection before cisplatin; time from cisplatin to read-out not stated
- Conditions: cisplatin at a dose killing half of control-siRNA cells; exact dose and duration not given
- Detection: 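Cisplatin cell death as a shift from the 50% death seen with control siRNA; siRNAs toxic or growth-blocking alone scored 0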
- Direction: two-siRNA summed score (-2 to +2): higher = both siRNAs protect from cisplatin killing; -2 means both sensitise; mean protection from cisplatin (shift in death) and protection from cisplatin (shift in death), siRNA C: higher = protection from cisplatin killing
- Hit rule: 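Each siRNA scores 0 if harmful alone by LDH or WST-1, otherwise +1 if it reduces and -1 if it increases cisplatin killing; a gene is active when both siRNAs agree (sum +2 or -2)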
- Meaning of the calls: active = both siRNAs shift cisplatin killing the same way; inactive = no consistent shift, or siRNA harmful alone

gene	reagent no.	two-siRNA summed score (-2 to +2)	mean protection from cisplatin (shift in death) (%)	protection from cisplatin (shift in death), siRNA C (%)	outcome
LRRC8E	1	0	-3.1	-8.6	inactive
PDE1C	1	-1	2.2	17.1	inactive
TIMCC	1	0	6.5	5.7	inactive
LOC388134	1	0	7	10.3	inactive
TMEM102	1	-1	-9.4	-6.9	inactive
TADA1	1	1	12.3	4.4	inactive
PIEZO2	1	-1	-10.5	-26	inactive
PIEZO2	2	0	8.8	9.2	inactive
RNF24	1	-1	-14	-8.3	inactive
ATP6V1G2	1	0	6.3	7.8	inactive
TNPO1	1	-1	-18.3	-19.5	inactive
CKB	1	0	3.3	18.9	inactive
NIPAL1	1	-1	-10.8	-18.3	inactive
KRTAP5-9	1	0	-0.2	-12.7	inactive
LOC346545	1	0	-1.3	-0.3	inactive

Ordered by “protection from cisplatin (shift in death), siRNA C (%)” (ascending): 7 of the entries above
gene	reagent no.	two-siRNA summed score (-2 to +2)	mean protection from cisplatin (shift in death) (%)	protection from cisplatin (shift in death), siRNA C (%)	outcome
TNPO1	1	-1	-18.3	-19.5	inactive
NIPAL1	1	-1	-10.8	-18.3	inactive
KRTAP5-9	1	0	-0.2	-12.7	inactive
RNF24	1	-1	-14	-8.3	inactive
ATP6V1G2	1	0	6.3	7.8	inactive
PIEZO2	2	0	8.8	9.2	inactive
CKB	1	0	3.3	18.9	inactive

Next records follow.
gene	reagent no.	two-siRNA summed score (-2 to +2)	mean protection from cisplatin (shift in death) (%)	protection from cisplatin (shift in death), siRNA C (%)	outcome
PTPN18	1	-1	1.3	-9.3	inactive
LOC441754	1	0	7.1	3.6	inactive
OR4P4	1	0	5.4	5.3	inactive
LOC285110	1	1	7.9	3.8	inactive
MUC12	1	0	-2.5	-6.8	inactive
GJC1	1	0	5.5	11.9	inactive
RCE1	1	0	-7.9	-6.2	inactive
ITGB1BP1	1	0	7.9	2.5	inactive
TMEM52	1	0	9.6	24.6	inactive
LMAN2L	1	0	8.9	5.8	inactive
STARD8	1	-1	0.9	-13.3	inactive
LOC389599	1	0	-4.4	-1.1	inactive
FSHB	1	0	4.4	0	inactive
FGF3	1	0	-1.5	4.5	inactive
NINL	1	1	4.5	-1.9	inactive
LOC401305	1	-1	0.3	-11.1	inactive
CEACAM20	1	1	5.5	21.2	inactive
NGFR	1	0	3.9	-2.7	inactive
CWC25	1	0	-4.4	-10.3	inactive
GJD3	1	0	0.2	-1.3	inactive
ZNF530	1	0	12.2	16	inactive
WDR6	1	0	-4.8	8.3	inactive
NMS	1	0	17.7	32.7	inactive
LOC442091	1	1	16.5	19.5	inactive
